Experimental findings from paper PMC4230746 are described below.

By UniProt entry, the sequences of proteins in these tests, tags left out.
UniProt Q92355: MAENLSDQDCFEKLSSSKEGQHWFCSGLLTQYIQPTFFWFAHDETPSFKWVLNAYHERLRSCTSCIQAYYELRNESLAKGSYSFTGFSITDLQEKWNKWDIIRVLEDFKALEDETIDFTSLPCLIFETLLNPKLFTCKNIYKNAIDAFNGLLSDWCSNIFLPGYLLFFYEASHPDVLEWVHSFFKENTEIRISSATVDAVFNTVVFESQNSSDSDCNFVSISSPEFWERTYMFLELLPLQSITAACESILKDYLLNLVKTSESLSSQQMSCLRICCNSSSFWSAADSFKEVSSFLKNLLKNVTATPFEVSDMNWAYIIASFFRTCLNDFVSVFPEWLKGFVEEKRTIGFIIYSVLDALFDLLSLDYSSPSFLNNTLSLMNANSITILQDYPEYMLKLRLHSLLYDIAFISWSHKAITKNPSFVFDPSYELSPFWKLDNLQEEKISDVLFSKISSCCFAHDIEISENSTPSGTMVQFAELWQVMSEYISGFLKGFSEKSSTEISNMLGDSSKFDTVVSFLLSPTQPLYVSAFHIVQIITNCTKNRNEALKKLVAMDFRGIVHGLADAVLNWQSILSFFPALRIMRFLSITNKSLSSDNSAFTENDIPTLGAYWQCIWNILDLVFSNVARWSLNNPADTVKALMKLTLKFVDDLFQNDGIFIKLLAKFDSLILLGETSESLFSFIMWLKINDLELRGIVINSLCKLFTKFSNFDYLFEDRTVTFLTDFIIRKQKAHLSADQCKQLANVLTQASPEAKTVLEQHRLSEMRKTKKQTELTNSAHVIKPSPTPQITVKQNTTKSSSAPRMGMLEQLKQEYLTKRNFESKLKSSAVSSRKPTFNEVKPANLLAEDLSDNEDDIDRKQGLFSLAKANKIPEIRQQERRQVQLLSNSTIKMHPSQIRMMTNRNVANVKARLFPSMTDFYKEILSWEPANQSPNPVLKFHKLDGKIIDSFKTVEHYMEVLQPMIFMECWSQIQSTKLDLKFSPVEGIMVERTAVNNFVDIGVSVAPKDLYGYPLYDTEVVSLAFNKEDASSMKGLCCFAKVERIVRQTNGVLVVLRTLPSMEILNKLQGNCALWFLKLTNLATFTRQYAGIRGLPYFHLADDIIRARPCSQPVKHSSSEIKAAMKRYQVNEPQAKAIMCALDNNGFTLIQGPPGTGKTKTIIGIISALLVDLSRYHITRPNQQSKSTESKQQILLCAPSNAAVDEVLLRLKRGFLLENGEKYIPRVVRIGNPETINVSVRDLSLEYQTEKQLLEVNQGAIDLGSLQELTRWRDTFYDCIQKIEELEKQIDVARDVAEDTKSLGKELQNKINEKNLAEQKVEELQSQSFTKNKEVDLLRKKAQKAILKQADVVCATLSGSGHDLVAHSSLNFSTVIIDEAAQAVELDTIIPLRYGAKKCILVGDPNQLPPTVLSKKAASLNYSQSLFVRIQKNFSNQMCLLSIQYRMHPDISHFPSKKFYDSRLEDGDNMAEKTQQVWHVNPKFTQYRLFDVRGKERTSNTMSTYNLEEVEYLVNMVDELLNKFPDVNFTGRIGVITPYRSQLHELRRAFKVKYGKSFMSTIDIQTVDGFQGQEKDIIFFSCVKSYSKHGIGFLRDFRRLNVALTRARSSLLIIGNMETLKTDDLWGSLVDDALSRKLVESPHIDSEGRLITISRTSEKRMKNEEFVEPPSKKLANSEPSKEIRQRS

No constants are given. Whether binding was seen depends on the method and setting. In cells and extracts the contact can be indirect. Some results given as binding are weak or reduced against the parent protein; the word gives no strength. Where a sequence is shown, tags or fusion partners need not be part of it.

This experiment addresses Flag-tagged Sen1 (fission yeast (Schizosaccharomyces pombe)) (UniProt Q92355). The experiment can be described thus: co-IP; Flag IP of Flag-tagged Sen1 from whole cell extracts of fission yeast strains; western blot of WCE and immuno-precipitated material.

B1: myc-tagged TFIIIC component Sfc6 (protein, UniProt O60174 1-582)
chain: MGPKSKEYENPSSYKNDEDNDDDGDFVLENVMSEEDIEIETPSRNRKRVSTTRRTPSKPIRSQPLTPSSSKGAGNEPKSQNSSTTRGSAKKQSSKGLEEKLINSYGTHVESLNKGRRLIEIWKYYETAPGQSSFEGQTSSDSKLQTLLNLDGQQLLSYSENPFYLFEVKNLSISFHFESPQQVEPCQPVNPFKENPQKSGFVVNTGIPLSSVSWLPTNKETQFLAVGGMLKFSETTESVFMRTSGRNQIQLWKLENKTNFKSEFILYHDWGSVLQLEWCPTISVEDSILGFLAVVCSDGKLRVLRVPRSPVKFHVFVEQADFTFGFNDSLISCCTWVSPEHGDIHQILVGCSNGYLALWDILSSQECPLFYIPYHDSYIHNVVQCLDDFPWLFLTTAFDCYTRIFDIRDPIIDNRPLSHKRDICYTITWNNMLQSIISCSESQSVVIESLRGTSTQLLDERNGSIISLSNSKFHPFVACAASDGIVTIVNPFRLLGFSHKQKANVHRIFQLEYSEKQDSYRMLDGFRPRLPKAKKLDMYIYPWQIQVNKVEWNGNKGYAGWLASGMACGILRVEDLSAVERR
Take B1: the binding result is “no binding”.

B2: Myc-tagged Rpc25 (protein, UniProt O94285 1-203)
chain: MFLLSRFSDIISIHPSNFWKPTKEALAEEIHKKYANKVIQNIGLAICVYDFLKIGEGIIKYGDGSSYMNVVFRLIIFRPFRGEVMLGKIKSCSEEGIRVTISFFDDIFIPKDMLFDPCVFRPDERAWVWKIEGEDGSEGTELYFDIDEEIRFQIESEDFVDISPKRNKNATAITGTEALESVSPYTLIASCSRDGLGIPAWWK
Turning to B2, the binding result is “binds”.
